Data reported in patent US12440529B2, “Topical Croton lechleri compositions and their use in the treatment of a bacterial colonization or primary or secondary bacterial infection of an underlying skin disorder” (ALPHYN BIOLOGICS, INC., priority 2020, dated 2025).
At least one compound was matched to its structure with a doubt left.

Assays:
Pseudomonas aeruginosa = conditions: quality control strain ATCC 27853; cited from earlier work
[1] = tested on: S. pyogenes (Erythromycin and Tetracycline resistant strains); test: MIC/MBC assay (2-fold microdilution, CAMHB with […] laked horse blood); assay type: cell-based, Streptococcus pyogenes
Procedure: Tables 26 and 27 show an assay whose setup is same as what was used for screening S. aureus and P. aeruginosa (i.e. 2-fold microdilution). The 20 strains of S. pyogenes assayed were selected from the two rounds of antibiotic screening to identify Erythromycin and Tetracycline resistant strains. […] For this feasibility study, AB-101 Lot 1 and Lot 2 was used. P. aeruginosa ATCC 27853 was tested as a positive control for AB-101 activity.

Row | SMILES | CLSI QC Range MIC (Pseudomonas aeruginosa) [µg/mL] | MIC (μg/mL) ([1]; S. pyogenes strain 2065759) | MIC (μg/mL) ([1]; S. pyogenes strain 2065761) | MIC (μg/mL) ([1]; S. pyogenes strain 2065763)
1 | C[C@@H](O)[C@H]1C(=O)N2C(C(=O)O)=C(SCCN=CN)C[C@H]12 [Imipenem] | 1 to 4 |  |  | 
2 | CN(C)[C@@H]1C(O)=C(C(N)=O)C(=O)[C@@]2(O)C(O)=C3C(=O)c4c(O)cccc4[C@@](C)(O)[C@H]3C[C@@H]12 [Tetracycline] |  | 16->16 | 16->16 | 16->16
